{"source": "patent EP2727592A1", "about": "(Kücükgüzel, Sükriye Güniz, priority 2012, dated 2014)", "origin": "cited, not measured here", "conditions": "in vivo"}
{"smiles": "Clc1ccc2c(c1)CCc1cccnc1C2=C1CCNCC1", "note": "[Desloratadine, 8-Chloro-6,11-dihydro-11-(4-piperidinylidene)-5H-benzo[5,6]cyclohepta[1,2-b]pyridine]", "values": [{"measurement": "duration of effect", "result": 24, "unit": "h"}]}
